From publication PMC8629392
No constants are given. Whether binding was seen depends on the method and setting. In cells and extracts the contact can be indirect.

By UniProt entry, the sequences of proteins in these tests, tags left out. Residues count along the entry.
UniProt O91087: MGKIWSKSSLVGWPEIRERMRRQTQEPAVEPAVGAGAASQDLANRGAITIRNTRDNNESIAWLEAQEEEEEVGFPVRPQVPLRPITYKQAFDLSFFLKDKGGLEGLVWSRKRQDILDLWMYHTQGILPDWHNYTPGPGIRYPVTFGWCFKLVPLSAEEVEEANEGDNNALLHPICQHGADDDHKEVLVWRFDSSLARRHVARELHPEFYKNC
UniProt P08631, residues 22-526: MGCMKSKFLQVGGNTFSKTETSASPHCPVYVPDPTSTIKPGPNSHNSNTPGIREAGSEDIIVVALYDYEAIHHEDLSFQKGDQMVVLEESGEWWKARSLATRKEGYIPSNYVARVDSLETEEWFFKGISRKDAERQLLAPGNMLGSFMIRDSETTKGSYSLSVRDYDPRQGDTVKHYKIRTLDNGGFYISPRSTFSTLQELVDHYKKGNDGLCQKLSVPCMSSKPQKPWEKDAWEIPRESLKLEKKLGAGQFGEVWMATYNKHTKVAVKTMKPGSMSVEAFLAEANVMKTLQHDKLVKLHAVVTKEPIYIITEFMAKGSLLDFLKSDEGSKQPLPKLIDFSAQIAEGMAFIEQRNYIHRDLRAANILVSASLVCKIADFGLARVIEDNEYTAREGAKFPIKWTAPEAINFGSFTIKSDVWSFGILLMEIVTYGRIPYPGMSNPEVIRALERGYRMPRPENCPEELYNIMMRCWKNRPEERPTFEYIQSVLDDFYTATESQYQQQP

Molecular target: HIV-1 N YBF30 Nef, wild type, Myc-tagged (HIV-1 group N, strain YBF30) (UniProt O91087)
Assay: co-IP; HEK293 cells co-transfected with Myc-tagged Nef and biotin acceptor domain-tagged Hck-p59; lysates subjected to anti-Myc immunoprecipitation, Hck detected in the immune complexes by Western blotting with labeled streptavidin

Human Hck p59, wild type, with C-terminal biotin acceptor domain (from UniProt P08631-2 1-505) (enzyme)
binding: no binding
